Data reported in patent US20230128499A1.
Results are given in words; binding and its absence hold for the method and conditions named. Some results given as binding are weak or reduced against the parent protein; the word gives no strength.

Chains of the proteins cited; added tags and fusions are not shown. Residues count along the entry.
UniProt Q02223, residues 1-54: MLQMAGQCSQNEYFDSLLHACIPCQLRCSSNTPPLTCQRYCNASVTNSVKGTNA

Target: BCMA (species not stated) (UniProt Q02223)
Assay: affinity maturation of PI-61; assay not described

| Binder | binding |
| --- | --- |
| anti-BCMA antibody AB3 (antibody, V domains shown) VH: QVQLVESGGGVVQPGRSLRLSCAASGFTVSSYGMHWVRQAPGKGLEWVAVISYTGSNKYYADSVKGRFTISRDNSKNTLYLQMNSLRAEDTAVYYCGGSGYALHDDYYGLDVWGQGTLVTVSS VL: QSALTQPASVSGSPGQSITISCTGTSSDVGGYNYVSWYQQHPGKAPKLMIYDVSNRLRGVSNRFSGSKSGNTASLTISGLQAEDEADYYCSSYTSSSALYVFGSGTKVTVL | binds |
| anti-BCMA antibody H2/L2-22 (antibody, V domains shown) VH: QAQLQSSEGGVVQPGRSLRLSCAASGFTFSSYGMHWVRQAPGKGLEWVAVISYHGSNKYYADSVKGRFTISRDNSKNTLYLQMNSLRAEDTAVYYCGGSGYALHDDYYGLDVWGQGTLVTVSS VL: QSALTQPASVSGSPGQSITISCTGTSSDVGGYNYVSWYQQHPGKAPKLMIYEVSNRLSGVSNRFSGSKFGNTASLTISGLQAEDEADYYCSSYTSSSTLYVFGSGTKVTVL | binds |
| anti-BCMA antibody H2/L2-88 (antibody, V domains shown) VH: QVQLQSSEGGVVQPGRSLRLSCAASGFTFSSYGMHWVRQAPGKGLEWVAVISYKGSNKYYADSVKGRFTISRDNSKNTLYLQMNSLRAEDTAVYYCGGSGYALHDDYYGLDVWGQGTLVTVSS VL: QSALTQPASVSGSPGQSITISCTGTSSDVGGYNYVSWYQQHPGKAPKLMIYEVSNRLRGVSNRFSGSKFGNTASLTISGLQAEDEADYYCSSYTSSSALYVFGSGTKVTVL | binds |
| anti-BCMA antibody H2/L2-36 (antibody, V domains shown) VH: QAQLQSSGGGVVQPGRSLRLSCAASGFTFSSYGMHWVRQAPGKGLEWVAVISYKGSNKYYADSVKGRFTISRDNSKNTLYLQMNSLRAEDTAVYYCGGSGYALHDDYYGLDVWGQGTLVTVSS VL: QSALTQPASVSGSPGQSITISCTGTSSDVGGYNYVSWYQQHPGKAPKLMIYEVSNRLRGVSNRFSGSKFGNTASLTISGLQAEDEADYYCSSYTSSSTLYVFGSGTKVTVL | binds |
| anti-BCMA antibody H2/L2-68 (antibody, V domains shown) VH: QAQLQSSEGGVVQPGRSLRLSCAASGFTFSSYGMHWVRQAPGKGLEWVAVISYRGFNKYYADSVKGRFTISRDNSKNTLYLQMNSLRAEDTAVYYCGGSGYALHDDYYGQDVWGQGTLVTVSS VL: QSALTQPASVSGSPGQSITISCTGTSSDVGGYNYVSWYQQHPGKAPKLMIYDVSNRLSGVSNRFSGSKFGNTASLTISGLQAEDEADYYCSSYTSSSTLYVFGSGTKVTVL | binds |
| anti-BCMA antibody H2/L2-18 (antibody, V domains shown) VH: QAQLQGSGGGVVQPGRSLRLSCAASGFTFSSYGMHWVRQAPGKGLEWVAVISYKGSHKYYADSVKGRFTISRDNSKNTLYLQMNSLRAEDTAVYYCGGSGYALHDDYYGLDVWGQGTLVTVSS VL: QSALTQPASVSGSPGQSITISCTGTSSDVGGYNYVSWYQQHPGKAPKLMIYDVSNRPWGVSNRFSGSKFGNTASLTISGLQAEDEADYYCSSYTSSSTLYVFGSGTKVTVL | binds |
| anti-BCMA antibody H2/L2-47 (antibody, V domains shown) VH: QVQLQSSEGGVVQPGRSLRLSCAASGFTFSSYGMHWVRQAPGKGLEWVAVISYKGSNKYYADSVKGRFTISRDNSKNTLYLQMNSLRAEDTAVYYCGGSGYALHDDYYGLDVWGQGTLVTVSS VL: QSALTQPASVSGSPGQSITISCTGTSSDVGGYNYVSWYQQHPGKAPKLMIYDVSNRPWGVSNRFSGSKFGNTASLTISGLQAEDEADYYCSSYTSSSTLYVFGSGTKVTVL | binds |
| anti-BCMA antibody H2/L2-20 (antibody, V domains shown) VH: QAQLQSSGGGVVQPGRSLRLSCAASGFTVSSYGMHWVRQAPGKGLEWVAVISYTGSNKYYADSVKGRFTISRDNSKNTLYLQMNSLRAEDTAVYYCGGSGYALHDDYYGLDVWGQGTLVTVSS VL: QSALTQPASVSGSPGQSITISCTGTSSDVGGYNYVSWYQQHPGKAPKLMIYDVSNRLRGVSNRFSGSKFGNTASLTISGLQAEDEADYYCSSYTSSSALYVFGSGTKVTVL | binds |
| anti-BCMA antibody H2/L2-80 (antibody, V domains shown) VH: QVQLQSSGGGVVQPGRSLRLSCAASGFTFSSYGMHWVRQAPGKGLEWVAVISYTGSNKYYADSVKGRFTISRDNSKNTLYLQMNSLRAEDTAVYYCGGSGYALHDDYYGLDVWGQGTLVTVSS VL: QSALTQPASVSGSPGQSITISCTGTSSDVGGYNYVSWYQQHPGKAPKLMIYDVSNRAWGVSNRFSGSKFGNTASLTISGLQAEDEADYYCSSYTSSSALYVFGSGTKVTVL | binds |
| anti-BCMA antibody H2/L2-83 (antibody, V domains shown) VH: QAQLQGSGGGVVQPGRSLRLSCAASGFTFSSYGMHWVRQAPGKGLEWVAVISYKGSNKYYADSVKGRFTISRDNSKNTLYLQMNSLRAEDTAVYYCGGSGYALHDDYYGLDVWGQGTLVTVSS VL: QSALTQPASVSGSPGQSITISCTGTSSDVGGYNYVSWYQQHPGKAPKLMIYEVSNRLRGVSNRFSGSKFGNTASLTISGLQAEDEADYYCSSYTSSSTLYVFGSGTKVTVL | binds |
| anti-BCMA antibody H3-1 (antibody, V domains shown) VH: QVQLQGSGGGVVQPGRSLRLSCAASGFTFSSYGMHWVRQAPGKGLEWVAVISYDDAHKYYADSVKGRFTISRDNSKNTLYLQMNSLRAEDTAVYYCGGSGYALHDQYKPVDVWGQGTLVTVSS VL: QSALTQPASVSGSPGQSITISCTGTSSDVGGYNYVSWYQQHPGKAPKLMIYEVSNRLRGVSNRFSGSKFGNTASLTISGLQAEDEADYYCSSYTSSSTLYVFGSGTKVTVL | binds |
| anti-BCMA antibody H3-2 (antibody, V domains shown) VH: QAQLQESEGGVVQPGGSLRLSCAASGFTFSSYGMHWVRQAPGKGLEWVAVISYNDLNKYYADSVKGRFTISRDNSKNTLYLQMNSLRAEDTAVYYCGGSGYALHDFQDPTDVWGQGTLVTVSS VL: QSALTQPASVSGSPGQSITISCTGTSSDVGGYNYVSWYQQHPGKAPKLMIYEVSNRLRGVSNRFSGSKFGNTASLTISGLQAEDEADYYCSSYTSSSTLYVFGSGTKVTVL | binds |
| anti-BCMA antibody H3-3 (antibody, V domains shown) VH: QVQLQSSGGGVVQPGRSLRLSCAASGFTVSSYGMHWVRQAPGKGLEWVAVISYSGSNKYYADSVKGRFTISRDNSKNTLYLQMNSLRAEDTAVYYCGGSGYALHDQYKPVDVWGQGTLVTVSS VL: QSALTQPASVSGSPGQSITISCTGTSSDVGGYNYVSWYQQHPGKAPKLMIYEVSNRLRGVSNRFSGSKFGNTASLTISGLQAEDEADYYCSSYTSSSTLYVFGSGTKVTVL | binds |
| anti-BCMA antibody H3-4 (antibody, V domains shown) VH: QVQLQGSGGGVVQPGRSLRLSCAASGFTFSSYGMHWVRQAPGKGLEWVAVISYDDAHKYYADSVKGRFTISRDNSKNTLYLQMNSLRAEDTAVYYCGGSGYALHDQYKPVDVWGQGTLVTVSS VL: QSALTQPASVSGSPGQSITISCTGTSSDVGGYNYVSWYQQHPGKAPKLMIYEVSNRLRGVSNRFSGSKFGNTASLTISGLQAEDEADYYCSSYTSSSALYVFGSGTKVTVL | binds |
| anti-BCMA antibody H3-5 (antibody, V domains shown) VH: QVQLQGSGGGVVQPGRSLRLSCAASGFTFSSYGMHWVRQAPGKGLEWVAVISYTGANKYYADSVKGRFTISRDNSKNTLYLQMNSLRAEDTAVYYCGGSGYNLHDDYYGLDVWGQGTLVTVSS VL: QSALTQPASVSGSPGQSITISCTGTSSDVGGYNYVSWYQQHPGKAPKLMIYEVSNRLSGVSNRFSGSKFGNTASLTISGLQAEDEADYYCSSYTSSSTLYVFGSGTKVTVL | binds |
| anti-BCMA antibody H3-6 (antibody, V domains shown) VH: QAQLQRSGGGVVQPGRSLRLSCAASGFTFSSYGMHWVRQAPGKGLEWVAVISYDDAHKYYADSVKGRFTISRDNSKNTLYLQMNSLRAEDTAVYYCGGSGYALHDQYKPVDVWGQGTLVTVSS VL: QSALTQPASVSGSPGQSITISCTGTSSDVGGYNYVSWYQQHPGKAPKLMIYEVSNRLRGVSNRFSGSKFGNTASLTISGLQAEDEADYYCSSYTSSSALYVFGSGTKVTVL | binds |
| anti-BCMA antibody H3-7 (antibody, V domains shown) VH: QVQLQSSEGGVVQPGRSLRLSCAASGFTLSSYGMHWVRQAPGKGLEWVAVISYTGSNKYYADSVKGRFTISRDNSKNTLYLQMNSLRAEDTAVYYCGGSGYEFHEDYYGLDVWGQGTLVTVSS VL: QSALTQPASVSGSPGQSITISCTGTSSDVGGYNYVSWYQQHPGKAPKLMIYEVSNRLRGVSNRFSGSKFGNTASLTISGLQAEDEADYYCSSYTSSSTLYVFGSGTKVTVL | binds |
| anti-BCMA antibody H3-8 (antibody, V domains shown) VH: QAQLQGSEGGVVQPGRSLRLSCAASGFTFSSYGMHWVRQAPGKGLEWVAVISYDDAHKYYADSVKGRFTISRDNSKNTLYLQMNSLRAEDTAVYYCGGSGYALHDQYKPVDVWGQGTLVTVSS VL: QSALTQPASVSGSPGQSITISCTGTSSDVGGYNYVSWYQQHPGKAPKLMIYEVSNRLRGVSNRFSGSKFGNTASLTISGLQAEDEADYYCSSYTSSSTLYVFGSGTKVTVL | binds |
| anti-BCMA antibody H3-9 (antibody, V domains shown) VH: QVQLQGSGGGVVQPGRSLRLSCAASGFTFSSYGMHWVRQAPGKGLEWVAVISYDDAHKYYADSVKGRFTISRDNSKNTLYLQMNSLRAEDTAVYYCGGSGYALHDQYKPVDVWGQGTLVTVSS VL: QSALTQPASVSGSPGQSITISCTGTSSDVGGYNYVSWYQQHPGKAPKLMIYEVSNRLRGVSNRFSGSKFGNTASLTISGLQAEDEAYYYCSSYTSSSTLYVFGSGTKVTVL | binds |
| anti-BCMA antibody H3-10 (antibody, V domains shown) VH: QVQLQSSGGGVVQPGRSLRLSCAASGFTFSSYGMHWVRQAPGKGLEWVAVISYNDLNKYYADSVKGRFTISRDNSKNTLYLQMNSLRAEDTAVYYCGGSGYEFQGDYYGLDVWGQGTLVTVSS VL: QSALTQPASVSGSPGQSITISCTGTSSDVGGYNYVSWYQQHPGKAPKLMIYEVSNRLRGVSNRFSGSKFGNTASLTISGLQAEDEADYYCSSYTSSSTLYVFGSGTKVTVL | binds |
| anti-BCMA antibody H3-11 (antibody, V domains shown) VH: QVQLQSSEGGVVQPGRSLRLSCAASGFTFSSYGMHWVRQAPGKGLEWVAVISYNDANKYYADSVKGRFTISRDNSKNTLYLQMNSLRAEDTAVYYCGGSGYELRDDYYGLDVWGQGTLVTVSS VL: QSALTQPASVSGSPGQSITISCTGTSSDVGGYNYVSWYQQHPGKAPKLMIYEVSNRLRGVSNRFSGSKFGNTASLTISGLQAEDEADYYCSSYTSSSTLYVFGSGTKVTVL | binds |
